Values after ≈ are worked out from the molar mass of the structure shown.
Test system: HIV-1 (RF)
Experiment: HIV RNA assay: microplate based compound evaluation in HIV-1 infected MT-2 cells
Format: cell-based
Conditions: Human immunodeficiency virus 1, MT2, 72 h; HIV-1 (RF) infected MT-2 cells, 3 days; value used to standardize the virus inoculum; read-out: IC90 (concentration of compound required to reduce the HIV RNA level by 90%)
Description: Plasmid PDAB 72 containing both gag and pol sequences of BH10 (bp 113–1816) cloned into PTZ 19R was prepared according to Erickson-Viitanen et al. AIDS Research and Human Retroviruses 1989, 5, 577. The plasmid was linearized with Bam HI prior to the generation of in vitro RNA transcripts using the Riboprobe Gemini system II kit (Promega) with T7 RNA polymerase. Synthesized RNA was purified by treatment with RNase free DNAse (Promega), phenol-chloroform extraction, and ethanol precipitation. RNA transcripts were dissolved in water, and stored at −70° C. The concentration of RNA was determined from the A260.
Biotinylated capture probes were purified by HPLC after synthesis on an Applied Biosystems (Foster City, Calif.) DNA synthesizer by addition of biotin to the 5′ terminal end of the oligonucleotide, using the biotin-phosphoramidite reagent of Cocuzza, Tet. Lett. 1989, 30, 6287. […]
MT-2 and MT-4 cells were maintained in RPMI 1640 supplemented with 5% fetal calf serum (FCS) for MT-2 cells or 10% FCS for MT-4 cells, 2 mM L-glutamine and 50 μg/mL gentamycin, all from Gibco. […] Infectious titers of HIV-1(RF) stocks were 1–3×10^7 PFU (plaque forming units)/mL as measured by plaque assay on MT-2 cells (see below). […]

IC90: 0.2 µg/mL (≈ 0.947 µM)
SMILES: Nc1ccn([C@H]2CC[C@@H](CO)O2)c(=O)n1 [ddC, 2′,3′-dideoxycytidine]

Reference: US7015214B2, “Cyanamide, alkoxyamino, and urea derivatives of 1,3-benzodiazepine as HIV reverse transcriptase inhibitors” (Bristol-Myers Squibb Pharma Company, priority 2001, dated 2006)
